Drug screen on melanoma cell lines: apoptosis marker

Data from the primary screen of doi:10.1371/journal.pone.0140310, rounded.

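The test systems are human melanoma cell lines, treated with a pair of drugs for 72 h and then stained and imaged. The read-out is the fraction of cleaved-PARP-positive nuclei, in % of that fraction in the DMSO control; 200 means twice the control level of this apoptosis marker. Concentrations were fixed for each drug; these are the higher of two levels. These are primary screening values without error estimates. The marker varies much from line to line, for technical or biological reasons.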
An unselected part of the screen is shown.
A dash means that no value is listed here.

Drugs:
MK-2206: NC1(c2ccc(-c3nc4ccn5c(=O)[nH]nc5c4cc3-c3ccccc3)cc2)CCC1 at 2 µM
embelin: CCCCCCCCCCCC1=C(O)C(=O)C=C(O)C1=O at 6 µM
VX-702: NC(=O)c1ccc(N(C(N)=O)c2c(F)cccc2F)nc1-c1ccc(F)cc1F at 2 µM
vismodegib: CS(=O)(=O)c1ccc(C(=O)Nc2ccc(Cl)c(-c3ccccn3)c2)c(Cl)c1 at 5 µM
dorsomorphin: c1cc(-c2cnn3cc(-c4ccc(OCCN5CCCCC5)cc4)cnc23)ccn1 at 2 µM
BI-78D3: O=c1[nH]nc(Sc2ncc([N+](=O)[O-])s2)n1-c1ccc2c(c1)OCCO2 at 1 µM
cediranib: COc1cc2c(Oc3ccc4[nH]c(C)cc4c3F)ncnc2cc1OCCCN1CCCC1 at 2 µM
AS-252424: O=C1NC(=O)/C(=C/c2ccc(-c3ccc(F)cc3O)o2)S1 at 5 µM
T0901317: O=S(=O)(c1ccccc1)N(CC(F)(F)F)c1ccc(C(O)(C(F)(F)F)C(F)(F)F)cc1 at 7 µM

Pair	IST-MEL1	COLO 800	SK-MEL-2	G-361	A101D	UACC-62
dorsomorphin + BI-78D3	105	103	54.6	255	228	291
dorsomorphin + vismodegib	55.0	114	114	135	126	320
AS-252424 + MK-2206	103	124	52.0	96.1	323	499
VX-702 + cediranib	251	104	24.7	69.3	93.3	126
BI-78D3 + AS-252424	115	105	37.2	106	42.8	70.0
cediranib + embelin	89.3	119	71.3	71.0	25.7	123
AS-252424 + vismodegib	122	84.8	58.4	114	31.8	207
BI-78D3 + cediranib	125	21.3	78.6	80.9	77.0	134
embelin + VX-702	64.6	51.4	107	39.5	25.1	124
T0901317 + AS-252424	86.9	130	133	37.8	65.1	36.5
MK-2206 + BI-78D3	79.1	178	44.1	70.5	92.5	319
AS-252424 + embelin	162	92.7	-	311	32.6	13.0
cediranib + dorsomorphin	91.1	119	-	178	114	128
vismodegib + embelin	95.5	73.2	191	67.4	61.7	166
T0901317 + vismodegib	111	139	86.4	292	62.1	109
MK-2206 + T0901317	82.6	145	69.4	113	191	462
MK-2206 + cediranib	106	129	83.8	149	154	123
cediranib + T0901317	38.6	260	137	79.0	74.0	59.7
VX-702 + BI-78D3	143	25.1	147	157	33.2	129
dorsomorphin + AS-252424	28.5	197	41.7	68.6	58.4	51.4
dorsomorphin + MK-2206	92.9	111	133	739	112	403
dorsomorphin + VX-702	63.6	70.9	176	109	67.8	181
BI-78D3 + embelin	145	92.5	109	233	110	139
VX-702 + vismodegib	86.4	22.1	68.8	43.9	54.6	143
cediranib + vismodegib	63.4	112	29.1	84.7	78.7	85.2
MK-2206 + embelin	80.0	259	140	468	159	240
MK-2206 + vismodegib	39.2	67.6	25.1	199	147	220
VX-702 + MK-2206	133	81.9	31.5	140	80.0	375
AS-252424 + VX-702	117	204	72.0	52.9	103	46.4
AS-252424 + cediranib	95.1	209	14.4	22.2	40.0	205
T0901317 + BI-78D3	59.3	303	162	147	121	162
dorsomorphin + embelin	88.5	92.7	92.5	256	52.5	78.8
T0901317 + VX-702	57.7	79.6	77.9	97.6	200	225
embelin + T0901317	414	136	99.4	234	52.0	201
dorsomorphin + T0901317	163	105	85.1	270	86.7	162
BI-78D3 + vismodegib	101	96.3	102	60.8	32.9	46.9

Some entries from above, unchanged:

Pair	IST-MEL1	COLO 800	SK-MEL-2	G-361	A101D	UACC-62
BI-78D3 + cediranib	125	21.3	78.6	80.9	77.0	134
cediranib + embelin	89.3	119	71.3	71.0	25.7	123
BI-78D3 + vismodegib	101	96.3	102	60.8	32.9	46.9
dorsomorphin + AS-252424	28.5	197	41.7	68.6	58.4	51.4